The structures appear in SMILES notation.

As to `Cc1ccc(S(=O)(=O)[O-])cc1.Cc1ccc([I+]c2ccc(CC(C)C)cc2)cc1` [Example 11, (4-isobutylphenyl)-ptolyl-iodonium p-tosylate], the “minimum transmission value at which the resist is fully developed” value (2.0% iodonium salt based on polymer, 1 micrometre, exposure 120 seconds, no sensitiser) is 16%. Further, the exposure energy (corresponding to the minimum transmission value, OAI 220 probe) is given as 26.9 mJ/cm^2.

For the origin of these results see patent US20010036591A1 (priority 1999, published 2001).
